The other results are listed elsewhere or left out.
Key:
Test in all cases: log2 fold change, soluble protein after heating vs DMSO (PISA); higher = thermal stabilisation; K562 lysate, 10 uM; active = over 0.2 and 3.5 SD of the protein, either way, in both replicates (recomputed)
[1] = compound: CN1CC[C@H](c2c(O)cc(O)c3c(=O)cc(-c4ccccc4Cl)oc23)[C@H](O)C1 [alvocidib]
Procedure, shortened: (§1)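 Log-two fold change in thermal stability relative to solvent controls is reported from duplicates. For each sample, crude K562 extract from dounce-homogenised pellets in PBS pH 7.4 with 1 mM MgCl2, at 1 mg/mL protein, was treated with 10 μM compound for 30 min. Aliquots heated for 3 min across 48°C-58°C were pooled, brought to 0.5% NP-40 at 4°C and cleared at 21,000xg for 90 min. The supernatant was quantified by TMTpro 16plex LC-MS/MS with channel sums equalised.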

Protein sequences, listed by entry. Tags and fused reporters are not part of them. Lines headed by an entry give the natural chain unless they say otherwise; changes in a name come on top.
UniProt P12429: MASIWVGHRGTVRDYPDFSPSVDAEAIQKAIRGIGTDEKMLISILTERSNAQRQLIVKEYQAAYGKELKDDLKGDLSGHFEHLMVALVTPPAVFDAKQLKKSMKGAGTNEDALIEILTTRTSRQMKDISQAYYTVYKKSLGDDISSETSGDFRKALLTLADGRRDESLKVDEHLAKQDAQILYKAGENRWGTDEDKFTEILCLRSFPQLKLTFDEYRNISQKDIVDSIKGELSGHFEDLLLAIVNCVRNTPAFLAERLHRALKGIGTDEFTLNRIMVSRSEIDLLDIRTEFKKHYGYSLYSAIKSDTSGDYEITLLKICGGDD
UniProt Q96BT7: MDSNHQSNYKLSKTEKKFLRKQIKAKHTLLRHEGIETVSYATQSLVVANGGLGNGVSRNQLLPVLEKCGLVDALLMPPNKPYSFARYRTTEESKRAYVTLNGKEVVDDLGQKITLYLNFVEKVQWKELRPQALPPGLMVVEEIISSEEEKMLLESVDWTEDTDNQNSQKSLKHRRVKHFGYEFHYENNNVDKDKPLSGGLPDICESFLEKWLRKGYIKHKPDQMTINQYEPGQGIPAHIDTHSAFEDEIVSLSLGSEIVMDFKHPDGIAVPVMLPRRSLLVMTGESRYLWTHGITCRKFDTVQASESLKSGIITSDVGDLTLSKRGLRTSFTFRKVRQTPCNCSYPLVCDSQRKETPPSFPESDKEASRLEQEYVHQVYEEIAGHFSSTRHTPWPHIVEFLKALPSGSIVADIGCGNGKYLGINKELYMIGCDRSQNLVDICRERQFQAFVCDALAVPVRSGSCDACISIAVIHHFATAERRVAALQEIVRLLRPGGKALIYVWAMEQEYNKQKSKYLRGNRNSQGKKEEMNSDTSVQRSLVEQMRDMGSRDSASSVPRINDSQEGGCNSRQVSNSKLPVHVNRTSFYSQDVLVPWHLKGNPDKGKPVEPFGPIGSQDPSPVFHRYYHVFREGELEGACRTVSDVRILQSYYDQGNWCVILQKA
UniProt P31751: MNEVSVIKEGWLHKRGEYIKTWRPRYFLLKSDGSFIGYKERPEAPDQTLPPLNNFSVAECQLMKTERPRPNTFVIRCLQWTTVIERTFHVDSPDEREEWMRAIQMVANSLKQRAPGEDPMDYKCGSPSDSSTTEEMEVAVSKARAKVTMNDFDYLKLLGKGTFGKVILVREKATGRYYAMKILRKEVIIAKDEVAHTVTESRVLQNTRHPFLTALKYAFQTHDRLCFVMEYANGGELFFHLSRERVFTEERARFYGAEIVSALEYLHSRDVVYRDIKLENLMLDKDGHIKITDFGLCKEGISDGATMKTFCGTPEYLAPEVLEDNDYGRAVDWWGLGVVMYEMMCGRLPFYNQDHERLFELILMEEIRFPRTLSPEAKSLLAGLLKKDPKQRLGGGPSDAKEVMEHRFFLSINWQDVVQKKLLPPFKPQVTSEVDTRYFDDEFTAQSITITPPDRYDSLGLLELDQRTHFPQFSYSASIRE
UniProt Q8IZ07: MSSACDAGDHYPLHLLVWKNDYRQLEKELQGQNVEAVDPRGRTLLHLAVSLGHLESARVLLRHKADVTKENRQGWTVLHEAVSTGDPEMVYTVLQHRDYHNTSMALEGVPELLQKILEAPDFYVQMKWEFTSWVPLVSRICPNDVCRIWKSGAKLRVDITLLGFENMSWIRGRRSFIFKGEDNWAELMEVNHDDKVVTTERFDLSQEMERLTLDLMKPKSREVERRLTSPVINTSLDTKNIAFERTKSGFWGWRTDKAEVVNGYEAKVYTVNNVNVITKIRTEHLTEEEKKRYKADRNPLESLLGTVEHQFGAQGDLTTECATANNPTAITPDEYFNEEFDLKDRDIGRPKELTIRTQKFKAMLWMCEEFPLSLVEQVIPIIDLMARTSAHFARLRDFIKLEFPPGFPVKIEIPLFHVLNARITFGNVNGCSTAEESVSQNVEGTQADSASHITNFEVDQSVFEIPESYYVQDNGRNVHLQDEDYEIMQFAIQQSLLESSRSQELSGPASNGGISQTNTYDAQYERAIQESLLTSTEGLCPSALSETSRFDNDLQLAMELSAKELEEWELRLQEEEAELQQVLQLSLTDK
UniProt Q12955: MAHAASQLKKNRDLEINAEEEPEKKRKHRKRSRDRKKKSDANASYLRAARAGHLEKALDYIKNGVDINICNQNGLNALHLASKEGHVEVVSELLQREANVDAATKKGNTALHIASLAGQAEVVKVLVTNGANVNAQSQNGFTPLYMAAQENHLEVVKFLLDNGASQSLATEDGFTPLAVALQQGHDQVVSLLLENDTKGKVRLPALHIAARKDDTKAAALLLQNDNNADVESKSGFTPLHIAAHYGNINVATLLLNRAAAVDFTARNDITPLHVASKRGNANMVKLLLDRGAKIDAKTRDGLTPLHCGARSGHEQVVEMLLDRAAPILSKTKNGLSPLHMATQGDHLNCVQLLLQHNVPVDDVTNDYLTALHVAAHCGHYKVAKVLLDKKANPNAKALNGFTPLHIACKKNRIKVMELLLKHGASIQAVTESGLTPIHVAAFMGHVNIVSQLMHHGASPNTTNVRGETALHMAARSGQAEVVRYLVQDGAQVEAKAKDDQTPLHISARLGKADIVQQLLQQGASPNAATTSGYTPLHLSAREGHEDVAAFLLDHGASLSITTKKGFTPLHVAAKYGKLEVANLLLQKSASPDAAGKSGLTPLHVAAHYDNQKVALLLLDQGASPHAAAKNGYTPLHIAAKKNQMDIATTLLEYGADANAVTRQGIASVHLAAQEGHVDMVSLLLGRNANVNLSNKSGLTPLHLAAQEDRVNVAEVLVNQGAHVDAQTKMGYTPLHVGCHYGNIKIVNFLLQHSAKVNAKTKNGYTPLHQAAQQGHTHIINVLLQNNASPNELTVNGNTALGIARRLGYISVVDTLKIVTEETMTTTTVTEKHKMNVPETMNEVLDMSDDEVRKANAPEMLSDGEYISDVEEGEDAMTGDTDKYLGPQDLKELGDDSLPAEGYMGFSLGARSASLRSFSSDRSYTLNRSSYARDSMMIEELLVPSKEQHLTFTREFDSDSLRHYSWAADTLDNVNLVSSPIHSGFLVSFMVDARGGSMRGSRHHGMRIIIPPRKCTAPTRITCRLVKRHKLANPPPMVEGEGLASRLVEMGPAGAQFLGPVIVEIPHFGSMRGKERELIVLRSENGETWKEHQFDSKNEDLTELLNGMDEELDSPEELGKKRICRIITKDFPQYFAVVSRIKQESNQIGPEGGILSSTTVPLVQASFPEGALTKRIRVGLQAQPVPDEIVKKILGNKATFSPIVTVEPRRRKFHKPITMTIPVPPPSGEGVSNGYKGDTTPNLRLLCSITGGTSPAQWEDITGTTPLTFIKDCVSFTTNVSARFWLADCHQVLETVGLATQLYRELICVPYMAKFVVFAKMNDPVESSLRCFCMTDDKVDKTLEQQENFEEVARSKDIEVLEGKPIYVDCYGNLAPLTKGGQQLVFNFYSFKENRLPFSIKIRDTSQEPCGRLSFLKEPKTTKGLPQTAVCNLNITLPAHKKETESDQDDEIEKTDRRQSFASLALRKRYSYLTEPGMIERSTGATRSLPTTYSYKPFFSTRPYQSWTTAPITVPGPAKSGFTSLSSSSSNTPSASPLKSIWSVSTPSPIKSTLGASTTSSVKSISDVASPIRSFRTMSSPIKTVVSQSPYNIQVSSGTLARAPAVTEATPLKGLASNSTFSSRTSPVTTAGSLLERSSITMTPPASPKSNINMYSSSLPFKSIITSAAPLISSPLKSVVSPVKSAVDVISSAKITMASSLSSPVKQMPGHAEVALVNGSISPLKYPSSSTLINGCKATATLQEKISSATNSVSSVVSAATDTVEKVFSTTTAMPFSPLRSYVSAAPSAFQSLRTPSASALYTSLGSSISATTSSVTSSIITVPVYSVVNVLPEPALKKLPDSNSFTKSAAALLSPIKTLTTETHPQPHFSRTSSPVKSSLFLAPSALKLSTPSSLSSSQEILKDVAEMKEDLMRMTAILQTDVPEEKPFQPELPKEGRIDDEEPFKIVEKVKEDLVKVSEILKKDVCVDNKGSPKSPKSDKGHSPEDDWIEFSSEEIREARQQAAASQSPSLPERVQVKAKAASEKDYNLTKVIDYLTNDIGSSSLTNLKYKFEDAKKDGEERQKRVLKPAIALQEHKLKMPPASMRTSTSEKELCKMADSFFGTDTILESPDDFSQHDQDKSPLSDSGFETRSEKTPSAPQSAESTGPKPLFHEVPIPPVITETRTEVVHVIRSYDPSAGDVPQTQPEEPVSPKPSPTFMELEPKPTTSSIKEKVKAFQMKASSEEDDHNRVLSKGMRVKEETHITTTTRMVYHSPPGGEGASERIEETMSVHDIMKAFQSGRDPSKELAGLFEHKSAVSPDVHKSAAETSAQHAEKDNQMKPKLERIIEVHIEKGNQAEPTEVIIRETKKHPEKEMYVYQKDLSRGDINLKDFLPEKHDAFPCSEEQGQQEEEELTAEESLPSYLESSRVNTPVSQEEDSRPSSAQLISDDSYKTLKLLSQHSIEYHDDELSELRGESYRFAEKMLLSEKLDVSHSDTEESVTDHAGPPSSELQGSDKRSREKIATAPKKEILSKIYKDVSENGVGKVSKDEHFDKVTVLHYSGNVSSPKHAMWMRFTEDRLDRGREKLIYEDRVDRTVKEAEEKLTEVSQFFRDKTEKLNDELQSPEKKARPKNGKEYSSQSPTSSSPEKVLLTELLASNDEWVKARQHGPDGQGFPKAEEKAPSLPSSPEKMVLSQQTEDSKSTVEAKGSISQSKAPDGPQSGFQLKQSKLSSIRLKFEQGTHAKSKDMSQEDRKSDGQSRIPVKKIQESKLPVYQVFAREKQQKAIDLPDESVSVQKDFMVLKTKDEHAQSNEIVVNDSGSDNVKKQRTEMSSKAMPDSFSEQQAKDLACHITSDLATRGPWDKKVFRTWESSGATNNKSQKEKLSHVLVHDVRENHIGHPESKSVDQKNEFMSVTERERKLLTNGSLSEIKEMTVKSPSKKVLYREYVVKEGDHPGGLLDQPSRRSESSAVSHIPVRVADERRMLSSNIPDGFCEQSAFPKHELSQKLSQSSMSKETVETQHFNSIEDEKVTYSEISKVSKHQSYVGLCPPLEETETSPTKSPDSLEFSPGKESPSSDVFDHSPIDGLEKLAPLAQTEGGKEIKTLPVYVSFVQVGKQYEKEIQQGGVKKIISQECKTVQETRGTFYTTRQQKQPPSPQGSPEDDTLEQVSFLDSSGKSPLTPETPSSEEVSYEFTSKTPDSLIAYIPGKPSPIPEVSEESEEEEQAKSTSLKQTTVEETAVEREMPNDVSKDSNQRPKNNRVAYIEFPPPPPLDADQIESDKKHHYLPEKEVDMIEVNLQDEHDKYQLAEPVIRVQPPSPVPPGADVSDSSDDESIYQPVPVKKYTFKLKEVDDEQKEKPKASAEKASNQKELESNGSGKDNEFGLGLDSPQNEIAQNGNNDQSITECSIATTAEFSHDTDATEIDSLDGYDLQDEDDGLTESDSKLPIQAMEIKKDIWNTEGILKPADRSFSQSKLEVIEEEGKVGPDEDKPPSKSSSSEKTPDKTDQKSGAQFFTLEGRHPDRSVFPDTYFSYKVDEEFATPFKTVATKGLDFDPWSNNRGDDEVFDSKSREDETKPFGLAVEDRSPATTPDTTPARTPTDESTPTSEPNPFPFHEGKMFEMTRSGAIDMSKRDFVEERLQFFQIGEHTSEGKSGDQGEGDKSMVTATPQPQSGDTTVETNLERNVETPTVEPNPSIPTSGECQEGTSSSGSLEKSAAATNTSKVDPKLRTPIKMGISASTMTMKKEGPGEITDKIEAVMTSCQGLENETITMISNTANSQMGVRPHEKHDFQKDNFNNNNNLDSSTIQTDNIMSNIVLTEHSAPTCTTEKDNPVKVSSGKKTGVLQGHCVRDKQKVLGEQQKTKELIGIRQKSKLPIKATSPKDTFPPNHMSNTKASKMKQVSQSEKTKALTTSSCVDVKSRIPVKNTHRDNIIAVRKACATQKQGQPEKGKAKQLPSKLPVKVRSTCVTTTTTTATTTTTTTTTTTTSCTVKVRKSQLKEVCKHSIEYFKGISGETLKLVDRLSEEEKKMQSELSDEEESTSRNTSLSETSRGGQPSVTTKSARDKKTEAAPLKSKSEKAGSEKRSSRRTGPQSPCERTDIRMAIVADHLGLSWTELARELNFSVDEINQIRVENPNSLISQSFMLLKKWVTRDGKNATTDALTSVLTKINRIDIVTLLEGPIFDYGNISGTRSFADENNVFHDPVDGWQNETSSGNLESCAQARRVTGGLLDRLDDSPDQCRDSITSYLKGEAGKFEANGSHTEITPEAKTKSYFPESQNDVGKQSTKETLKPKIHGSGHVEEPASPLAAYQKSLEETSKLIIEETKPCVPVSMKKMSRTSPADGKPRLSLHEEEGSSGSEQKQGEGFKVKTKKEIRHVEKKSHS
UniProt P53680: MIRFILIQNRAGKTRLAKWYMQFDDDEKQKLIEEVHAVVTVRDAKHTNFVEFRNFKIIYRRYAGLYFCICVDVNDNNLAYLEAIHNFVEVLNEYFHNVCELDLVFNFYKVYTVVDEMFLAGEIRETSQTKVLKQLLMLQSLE

[2] = compound: CN1CCc2c(c3ccccc3n2Cc2ccc(C(=O)NO)cc2)C1 [Tubastatin A]
Procedure, shortened: as §1

[3] = compound: CNC(=O)C1=CC=CC=C1NC2=NC(=NC=C2Cl)NC3=C(C=C(C=C3)N4CCOCC4)OC
Procedure, shortened: as §1

[4] = compound: CNC(=O)c1ccc(Nc2ncc(C(F)(F)F)c(NCc3nccnc3N(C)S(C)(=O)=O)n2)cc1 [defactinib]
Procedure, shortened: as §1

[5] = compound: CNc1nc(-c2ccc3c(N)n[nH]c3c2)cc(N2C[C@@H](C(=O)NC3CCCCC3)CC[C@H]2C)n1
Procedure, shortened: as §1

[6] = compound: COC(=O)N[C@@H](C)CNc1nccc(-c2cn(C(C)C)nc2-c2cc(Cl)cc(NS(C)(=O)=O)c2F)n1 [encorafenib]
Procedure, shortened: as §1

[7] = compound: COC(=O)[C@H](CCSC)NC(=O)C1=C(C=C(C=C1)NC[C@H](CS)N)C2=CC=CC=C2
Procedure, shortened: as §1

[8] = compound: COc1cc(Nc2ncc3c(n2)-c2ccc(Cl)cc2C(c2c(F)cccc2OC)=NC3)ccc1C(=O)O [alisertib]
Procedure, shortened: as §1

[9] = compound: COc1cc2nc(-c3cc(F)ccc3O)nc(N[C@@H]3CNC[C@H]3C(C)(C)O)c2cc1OC
Procedure, shortened: as §1

[10] = compound: COc1cc2ncnc(Nc3ccc(F)c(Cl)c3)c2cc1OCCCN1CCOCC1 [gefitinib]
Procedure, shortened: as §1

Measured: log2 fold change

AMD1 (UniProt P17707)
inactive: [1] -0.039 | [2] -0.084 | [3] 0.071 | [4] -0.003 | [5] 0.008 | [6] -0.08 | [7] -0.107 | [8] 0.027 | [9] 0.261 | [10] 0.041

ANO6 (UniProt Q4KMQ2)
inactive: [1] -0.018 | [2] 0.022 | [3] 0.03 | [4] 0.029 | [5] -0.015 | [6] 0.015 | [7] 0.085 | [8] 0.04 | [9] -0.014 | [10] -0.06

ANAPC1 (UniProt Q9H1A4)
inactive: [1] -0.007 | [2] -0.081 | [3] 0.02 | [4] -0.011 | [5] 0.014 | [6] 0.055 | [7] -0.042 | [8] 0.005 | [9] 0.012 | [10] 0

AP3M1 (UniProt Q9Y2T2)
inactive: [1] 0.001 | [2] -0.003 | [3] 0.042 | [4] 0.046 | [5] 0.023 | [6] 0.025 | [7] -0.036 | [8] -0.022 | [9] 0.006 | [10] 0.016

ANXA3 (UniProt P12429)
inactive: [1] -0.006 | [2] -0.038 | [3] -0.014 | [4] 0.011 | [5] -0.087 | [6] -0.013 | [7] 0.063 | [8] -0.011 | [9] -0.006 | [10] 0.004

ALKBH8 isoform 4 (UniProt Q96BT7)
inactive: [1] -0.025 | [2] 0.06 | [3] 0.032 | [4] 0.027 | [5] 0.012 | [6] 0.077 | [7] 0.065 | [8] -0.009 | [9] -0.007 | [10] 0.085

ANKRD54 (UniProt Q6NXT1)
inactive: [1] -0.019 | [2] -0.095 | [3] 0.121 | [4] 0.022 | [5] 0.042 | [6] 0.082 | [7] -0.147 | [8] 0.006 | [9] -0.011 | [10] 0.002

ALKBH6 isoform 2 (UniProt Q3KRA9)
inactive: [1] 0.047 | [2] -0.009 | [3] -0.063 | [4] -0.068 | [5] 0.031 | [6] 0.023 | [7] 0.011 | [8] -0.078 | [10] 0.001

ANLN (UniProt Q9NQW6)
inactive: [1] -0.037 | [2] -0.196 | [3] 0.058 | [4] 0.012 | [5] 0.011 | [6] 0.036 | [7] 0.102 | [8] 0.051 | [9] 0.004 | [10] 0.03

AMPD3 isoform 4 (UniProt Q01432)
inactive: [1] 0.012 | [2] 0.027 | [3] 0.015 | [4] 0.011 | [5] -0.034 | [6] -0.013 | [7] 0.103 | [8] 0.008 | [9] -0.068 | [10] 0.012

ANP32A (UniProt P39687)
inactive: [1] -0.039 | [2] 0.027 | [3] -0.006 | [4] 0.016 | [5] -0.056 | [6] -0.024 | [7] -0.048 | [8] 0.018 | [9] -0.014 | [10] -0.007

ALKBH3 (UniProt Q96Q83)
inactive: [1] -0.006 | [2] 0.023 | [3] 0.022 | [4] -0.029 | [5] 0.005 | [6] -0.047 | [7] 0.007 | [8] 0.129 | [9] -0.141 | [10] -0.099

AP3D1 isoform 5 (UniProt O14617)
inactive: [1] -0.02 | [2] -0.048 | [3] 0.018 | [4] 0.033 | [5] 0.03 | [6] 0.026 | [7] -0.028 | [8] -0.009 | [9] 0.004 | [10] -0.014

AKT2 (UniProt P31751)
inactive: [1] 0.001 | [2] -0.061 | [3] 0.036 | [4] -0.013 | [5] -0.064 | [6] 0.028 | [7] 0.037 | [8] 0.003 | [9] -0.005 | [10] -0.013

AP2M1 (UniProt Q96CW1)
inactive: [1] 0.011 | [2] -0.013 | [3] 0.021 | [4] -0.003 | [5] -0.009 | [6] -0.01 | [7] -0.036 | [8] -0.03 | [9] -0.015 | [10] -0.018

Fetched one by one from above, 2 records:
ANP32A (UniProt P39687)
inactive: [1] -0.039 | [2] 0.027 | [3] -0.006 | [4] 0.016 | [5] -0.056 | [6] -0.024 | [7] -0.048 | [8] 0.018 | [9] -0.014 | [10] -0.007

AP2M1 (UniProt Q96CW1)
inactive: [1] 0.011 | [2] -0.013 | [3] 0.021 | [4] -0.003 | [5] -0.009 | [6] -0.01 | [7] -0.036 | [8] -0.03 | [9] -0.015 | [10] -0.018

The list goes on:

ANKRD13A (UniProt Q8IZ07)
inactive: [1] 0.011 | [2] -0.047 | [3] -0.003 | [4] 0.047 | [5] 0.01 | [6] 0.025 | [7] -0.009 | [8] -0.039 | [9] -0.012 | [10] 0.001

AP2A2 isoform 2 (UniProt O94973)
inactive: [1] -0.016 | [2] -0.047 | [3] -0.004 | [4] -0.005 | [5] -0.025 | [6] 0.022 | [7] -0.017 | [8] -0.039 | [9] 0.014 | [10] 0.011

AMPD2 (UniProt Q01433)
inactive: [1] -0.037 | [2] 0.051 | [3] -0.004 | [4] -0.02 | [5] -0.005 | [6] 0.002 | [7] 0.024 | [8] -0.01 | [9] 0.005 | [10] -0.008

AP1G2 (UniProt O75843)
inactive: [1] 0.04 | [2] -0.099 | [3] 0.068 | [4] -0.006 | [5] 0.036 | [6] -0.03 | [7] -0.015 | [8] 0.037 | [9] 0.056 | [10] 0.03

AP2B1 isoform 2 (UniProt P63010)
inactive: [1] -0.025 | [2] 0.021 | [3] 0.014 | [4] -0.013 | [5] 0 | [6] -0.014 | [7] -0.02 | [8] -0.014 | [9] -0.007 | [10] -0.032

ANAPC16 (UniProt Q96DE5)
inactive: [1] 0.147 | [2] -0.062 | [3] 0.098 | [4] 0.144 | [5] 0.014 | [6] 0.045 | [7] -0.24 | [8] 0.11 | [9] -0.069 | [10] -0.076

ALDH18A1 (UniProt P54886)
inactive: [1] -0.005 | [2] -0.049 | [3] 0.005 | [4] 0.006 | [5] -0.01 | [6] -0.009 | [7] 0.062 | [8] 0.01 | [9] 0.017 | [10] 0.001

ANKMY2 (UniProt Q8IV38)
inactive: [1] 0.047 | [2] -0.009 | [3] 0.023 | [4] 0.015 | [5] 0.028 | [6] -0.005 | [7] 0.066 | [8] -0.004 | [9] -0.005 | [10] -0.027

ANKS1A (UniProt Q92625)
inactive: [1] -0.064 | [2] -0.065 | [3] 0.032 | [4] 0.04 | [5] 0.008 | [6] 0.061 | [7] 0.038 | [8] -0.016 | [9] -0.004 | [10] 0.002

ANKZF1 (UniProt Q9H8Y5)
inactive: [1] -0.059 | [2] -0.03 | [3] 0.025 | [4] -0.005 | [5] 0.023 | [6] -0.001 | [7] 0.073 | [8] -0.035 | [9] -0.046 | [10] 0.014

AMOTL1 (UniProt Q8IY63)
inactive: [1] 0.094 | [2] 0.055 | [3] 0.049 | [4] -0.072 | [5] 0.042 | [6] 0.145 | [7] -0.083 | [8] 0.037 | [10] 0.057

ANK3 (UniProt Q12955)
inactive: [1] -0.015 | [2] -0.037 | [3] 0.026 | [4] 0.017 | [5] -0.008 | [6] 0.03 | [7] 0.043 | [8] -0.001 | [9] 0.029 | [10] -0.036

ANKRD27 (UniProt Q96NW4)
inactive: [1] -0.056 | [2] -0.118 | [3] 0.046 | [4] 0.035 | [5] 0.003 | [6] -0.007 | [7] 0.103 | [8] -0.053 | [9] -0.087 | [10] 0.03

ANXA1 (UniProt P04083)
inactive: [1] -0.025 | [2] -0.005 | [3] -0.021 | [4] -0.007 | [5] -0.055 | [6] -0.021 | [7] 0.028 | [8] 0.001 | [9] 0.008 | [10] -0.012

AP2S1 (UniProt P53680)
inactive: [1] -0.006 | [2] 0.007 | [3] -0.012 | [4] 0.006 | [5] -0.139 | [6] 0.045 | [7] -0.056 | [8] 0.022 | [9] -0.014 | [10] 0.036

Reference: the supplement of paper PMC10849652
